No constants are given. Whether binding was seen depends on the method and setting. Some binding calls cover weakened binding; strength is not graded here.
Legend:
[1] = molecular target: GST-tagged LEF1 (full-length) (UniProt Q9UJU2); experiment: pull-down
GST-tagged TCF7 = GST-tagged TCF7 (UniProt P36402); experiment: pull-down

Amino acid sequences for entries named in this document (tags omitted).
UniProt Q9UJU2: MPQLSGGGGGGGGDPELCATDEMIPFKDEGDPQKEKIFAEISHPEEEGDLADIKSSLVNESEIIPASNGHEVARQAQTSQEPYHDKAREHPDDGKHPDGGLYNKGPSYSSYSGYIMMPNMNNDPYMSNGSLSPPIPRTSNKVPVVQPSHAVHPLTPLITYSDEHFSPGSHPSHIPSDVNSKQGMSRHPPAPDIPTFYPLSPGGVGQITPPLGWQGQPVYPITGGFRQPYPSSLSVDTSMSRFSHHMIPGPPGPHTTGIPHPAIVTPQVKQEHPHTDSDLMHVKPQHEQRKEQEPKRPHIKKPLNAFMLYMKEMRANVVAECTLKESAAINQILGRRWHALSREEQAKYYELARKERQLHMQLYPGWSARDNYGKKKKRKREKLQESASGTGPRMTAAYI
UniProt P36402: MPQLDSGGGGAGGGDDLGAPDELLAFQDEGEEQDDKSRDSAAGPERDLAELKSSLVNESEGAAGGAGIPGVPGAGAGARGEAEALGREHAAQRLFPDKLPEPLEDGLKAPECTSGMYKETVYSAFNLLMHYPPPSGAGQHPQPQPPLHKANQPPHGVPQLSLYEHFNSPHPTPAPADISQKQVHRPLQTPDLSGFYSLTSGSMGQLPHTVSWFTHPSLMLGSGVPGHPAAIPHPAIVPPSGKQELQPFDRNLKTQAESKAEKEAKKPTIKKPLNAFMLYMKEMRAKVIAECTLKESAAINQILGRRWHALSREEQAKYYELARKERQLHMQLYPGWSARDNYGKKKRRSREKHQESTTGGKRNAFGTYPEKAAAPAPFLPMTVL
UniProt P48436: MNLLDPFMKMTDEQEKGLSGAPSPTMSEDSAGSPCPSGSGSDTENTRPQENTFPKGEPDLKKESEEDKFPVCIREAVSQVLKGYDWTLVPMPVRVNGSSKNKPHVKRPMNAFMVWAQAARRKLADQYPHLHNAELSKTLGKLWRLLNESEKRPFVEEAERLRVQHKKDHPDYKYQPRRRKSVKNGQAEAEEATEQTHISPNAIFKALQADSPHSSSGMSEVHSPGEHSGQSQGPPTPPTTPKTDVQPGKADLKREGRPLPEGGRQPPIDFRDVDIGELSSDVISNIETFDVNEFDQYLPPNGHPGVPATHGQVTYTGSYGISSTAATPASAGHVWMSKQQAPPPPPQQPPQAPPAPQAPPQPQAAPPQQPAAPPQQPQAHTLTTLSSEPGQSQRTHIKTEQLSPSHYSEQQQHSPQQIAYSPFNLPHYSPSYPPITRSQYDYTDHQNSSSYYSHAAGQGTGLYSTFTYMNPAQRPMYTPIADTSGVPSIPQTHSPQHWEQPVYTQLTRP

binding [1]: binds
binding (GST-tagged TCF7): binds
Substance: His-tagged SOX9 (full-length) (from UniProt P48436 1-509)

— publication doi:10.1101/2022.04.06.487337
